Experimental data: US20260056209A1
No constants are given. Whether binding was seen depends on the method and setting. Some binding calls cover weakened binding; strength is not graded here. Tags and fused reporters may be left off the sequences shown.

By UniProt entry, the sequences of proteins in these tests, tags left out. Where a name states a change or a piece, a line headed by the entry shows the natural chain unless it says otherwise.
UniProt P51685: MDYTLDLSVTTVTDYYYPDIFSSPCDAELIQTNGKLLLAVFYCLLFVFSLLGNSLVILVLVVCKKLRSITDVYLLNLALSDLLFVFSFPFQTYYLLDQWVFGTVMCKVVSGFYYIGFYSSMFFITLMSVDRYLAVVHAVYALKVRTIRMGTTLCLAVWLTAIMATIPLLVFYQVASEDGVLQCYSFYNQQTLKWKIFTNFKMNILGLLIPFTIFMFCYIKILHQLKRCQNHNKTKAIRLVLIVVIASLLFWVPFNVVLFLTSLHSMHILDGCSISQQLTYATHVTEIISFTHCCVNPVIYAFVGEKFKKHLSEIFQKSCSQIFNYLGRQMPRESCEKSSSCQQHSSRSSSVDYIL

Assays:
Human CCR8 [1] = biological target: T1, Human CCR8 (UniProt Identifier P51685) (human) (UniProt P51685); test: IHC on human H&N SCC FFPE tissues at 0.25 µg/mL
Human CCR8 [2] = biological target: T1, Human CCR8; test: IHC on cell pellet array (NSO huCCR8, HEK293 untagged CCR8, Hut78 and wildtype negative controls)
Human CCR8 [3] = biological target: T1, Human CCR8; test: IHC on CCR8-expressing HEK293T cell pellets with or without 7-B16 pre-treatment
Human CCR8 [4] = biological target: T1, Human CCR8; test: IHC on cell pellets and human FFPE tissues

| Binder | binding (Human CCR8 [1]) | binding (Human CCR8 [2]) | binding (Human CCR8 [3]) | binding (Human CCR8 [4]) |
| --- | --- | --- | --- | --- |
| BD 566379 (Clone 433H) (antibody, V domains shown) VH: EVQLVETGGGLVQPKGSLRLSCAASGFPFNTFAMNWVRQAPGKGLEWLARIRSKSNNYATYYADSVKDRFTISRDDSRRMLYLLMNNVKFEDTAIYYCVRGKENNYGYAMDYWGQGTSVTVSS VL: DIVMTQAAPSVPVTPGESVSISCRSSQSLLHSNGNTYLYWFLQRPGQSPQLLIYRMSNLASGVPDRFSGSGSGTAFTLRISRVEAEDVGVYYCMQHLEYPFTFGIGTKLELKR | binds | binds |  |  |
| BD 624084 (unconjugated 433H antibody) (antibody, human IgG1, kappa, V domains shown) VH: EVQLVETGGGLVQPKGSLRLSCAASGFPFNTFAMNWVRQAPGKGLEWLARIRSKSNNYATYYADSVKDRFTISRDDSRRMLYLLMNNVKFEDTAIYYCVRGKENNYGYAMDYWGQGTSVTVSS VL: DIVMTQAAPSVPVTPGESVSISCRSSQSLLHSNGNTYLYWFLQRPGQSPQLLIYRMSNLASGVPDRFSGSGSGTAFTLRISRVEAEDVGVYYCMQHLEYPFTFGIGTKLELKR |  |  | binds | binds |
